Measurements reported in paper PMC9410881.
Construct, isoform or probe ends are uncertain for at least one entry. No signal at the amounts used counts as a negative.

The sequences below were run on Aca10 WT (Pseudomonas citronellolis) (assay: EMSA). Details: 2.5 uM Aca10; EMSA: 20 ng dsDNA in 20 mM Tris-HCl pH 8.0, 150 mM NaCl, 60 min on ice; 10% native 0.5x TBE PAGE, SYBR Gold; recombinant protein; protein details: C-terminal His6 (pET21a).

Q: Does “ATACGCTCATTGAGCGTAT (double strand) [IR2 truncated by one base at both ends (19 bp)]” bind?
A: binds

Q: Does “ACAAGCGGCACACTGTGCCTATTGCGAATTAGGCACAATGTGCCTAATCTAACG (double strand) [Aca1 IR]” bind?
A: no binding

Q: Does “CACTGTTCGCAATTGCGAACTAAGATGGAACCAGATTCGAGATTGGCTCGAATCACCTC (double strand) [Aca2 IR]” bind?
A: no binding
